These are yes or no findings as the source states them, for the method shown. Some results given as binding are weak or reduced against the parent protein; the word gives no strength.

This experiment concerns the target endogenous LAMP2A (lysosome-associated membrane protein 2 A) (mouse (endogenous in SN4741)) (UniProt P17047). Nature of the experiment: native gel or EMSA; lysosomes or lysosomal membrane purified from SN4741 cells (untreated, Tg, Tg with SB203580, 6-OHDA, PERK inhibitor GSK2606414); continuous native PAGE, 6% polyacrylamide, no SDS, no boiling, non-reducing loading buffer; immunoblot for LAMP2A.

B1: endogenous LAMP2A (lysosome-associated membrane protein 2 A) (receptor, UniProt P17047-1 26-415)
chain: LIVNLTDSKGTCLYAEWEMNFTITYETTNQTNKTITIAVPDKATHDGSSCGDDRNSAKIMIQFGFAVSWAVNFTKEASHYSIHDIVLSYNTSDSTVFPGAVAKGVHTVKNPENFKVPLDVIFKCNSVLTYNLTPVVQKYWGIHLQAFVQNGTVSKNEQVCEEDQTPTTVAPIIHTTAPSTTTTLTPTSTPTPTPTPTPTVGNYSIRNGNTTCLLATMGLQLNITEEKVPFIFNINPATTNFTGSCQPQSAQLRLNNSQIKYLDFIFAVKNEKRFYLKEVNVYMYLANGSAFNISNKNLSFWDAPLGSSYMCNKEQVLSVSRAFQINTFNLKVQPFNVTKGQYSTAQDCSADEDNFLVPIAVGAALGGVLILVLLAYFIGLKRHHTGYEQF
Turning to B1, the binding entry is recorded as “binds”.

The record behind these values is paper PMC5701254.
